Assay results from paper PMC12989817.

Amino acid sequences for entries named in this document (tags omitted). Residues count along the entry.
UniProt P22001, residues 53-575: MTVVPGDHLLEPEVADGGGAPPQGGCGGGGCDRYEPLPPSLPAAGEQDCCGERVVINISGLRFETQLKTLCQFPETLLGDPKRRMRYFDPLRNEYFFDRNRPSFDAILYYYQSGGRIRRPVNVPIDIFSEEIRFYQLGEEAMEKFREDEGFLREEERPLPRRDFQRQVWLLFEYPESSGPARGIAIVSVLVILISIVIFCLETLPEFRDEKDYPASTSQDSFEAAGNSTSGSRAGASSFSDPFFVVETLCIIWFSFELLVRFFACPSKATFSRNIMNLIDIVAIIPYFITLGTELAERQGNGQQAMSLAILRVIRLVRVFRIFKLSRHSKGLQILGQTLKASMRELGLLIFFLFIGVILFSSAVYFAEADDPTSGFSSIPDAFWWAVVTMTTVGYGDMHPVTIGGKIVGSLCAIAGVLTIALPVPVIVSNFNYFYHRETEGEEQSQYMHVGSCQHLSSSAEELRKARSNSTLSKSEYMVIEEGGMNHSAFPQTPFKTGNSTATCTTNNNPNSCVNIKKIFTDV

Biological target: C-terminal Kv1.3-TurboID (Kv1.3-V5-TurboID fusion) (human) (UniProt P22001)
Assay: proximity labelling; TurboID fused to Kv1.3, stably expressed in Jurkat T-cells; 200 μM biotin for 1 h; lysis in 8 M urea; biotinylated proteins enriched on streptavidin magnetic beads; label-free quantitative MS against untransduced Jurkat T-cells or between lines (>4-fold, p<0.05; n=3)

| binding | Binder |
| --- | --- |
| binds | EPS15 (protein, UniProt P42566 1-896) MAAAAQLSLTQLSSGNPVYEKYYRQVDTGNTGRVLASDAAAFLKKSGLPDLILGKIWDLADTDGKGILNKQEFFVALRLVACAQNGLEVSLSSLNLAVPPPRFHDTSSPLLISGTSAAELPWAVKPEDKAKYDAIFDSLSPVNGFLSGDKVKPVLLNSKLPVDILGRVWELSDIDHDGMLDRDEFAVAMFLVYCALEKEPVPMSLPPALVPPSKRKTWVVSPAEKAKYDEIFLKTDKDMDGFVSGLEVREIFLKTGLPSTLLAHIWSLCDTKDCGKLSKDQFALAFHLISQKLIKGIDPPHVLTPEMIPPSDRASLQKNIIGSSPVADFSAIKELDTLNNEIVDLQREKNNVEQDLKEKEDTIKQRTSEVQDLQDEVQRENTNLQKLQAQKQQVQELLDELDEQKAQLEEQLKEVRKKCAEEAQLISSLKAELTSQESQISTYEEELAKAREELSRLQQETAELEESVESGKAQLEPLQQHLQDSQQEISSMQMKLMEMKDLENHNSQLNWCSSPHSILVNGATDYCSLSTSSSETANLNEHVEGQSNLESEPIHQESPARSSPELLPSGVTDENEVTTAVTEKVCSELDNNRHSKEEDPFNVDSSSLTGPVADTNLDFFQSDPFVGSDPFKDDPFGKIDPFGGDPFKGSDPFASDCFFRQSTDPFATSSTDPFSAANNSSITSVETLKHNDPFAPGGTVVAASDSATDPFASVFGNESFGGGFADFSTLSKVNNEDPFRSATSSSVSNVVITKNVFEETSVKSEDEPPALPPKIGTPTRPCPLPPGKRSINKLDSPDPFKLNDPFQPFPGNDSPKEKDPEIFCDPFTSATTTTNKEADPSNFANFSAYPSEEDMIEWAKRESEREEEQRLARLNQQEQEDLELAIALSKSEISEA |
| binds | TSC1 (protein, UniProt Q92574 1-1164) MAQQANVGELLAMLDSPMLGVRDDVTAVFKENLNSDRGPMLVNTLVDYYLETSSQPALHILTTLQEPHDKHLLDRINEYVGKAATRLSILSLLGHVIRLQPSWKHKLSQAPLLPSLLKCLKMDTDVVVLTTGVLVLITMLPMIPQSGKQHLLDFFDIFGRLSSWCLKKPGHVAEVYLVHLHASVYALFHRLYGMYPCNFVSFLRSHYSMKENLETFEEVVKPMMEHVRIHPELVTGSKDHELDPRRWKRLETHDVVIECAKISLDPTEASYEDGYSVSHQISARFPHRSADVTTSPYADTQNSYGCATSTPYSTSRLMLLNMPGQLPQTLSSPSTRLITEPPQATLWSPSMVCGMTTPPTSPGNVPPDLSHPYSKVFGTTAGGKGTPLGTPATSPPPAPLCHSDDYVHISLPQATVTPPRKEERMDSARPCLHRQHHLLNDRGSEEPPGSKGSVTLSDLPGFLGDLASEEDSIEKDKEEAAISRELSEITTAEAEPVVPRGGFDSPFYRDSLPGSQRKTHSAASSSQGASVNPEPLHSSLDKLGPDTPKQAFTPIDLPCGSADESPAGDRECQTSLETSIFTPSPCKIPPPTRVGFGSGQPPPYDHLFEVALPKTAHHFVIRKTEELLKKAKGNTEEDGVPSTSPMEVLDRLIQQGADAHSKELNKLPLPSKSVDWTHFGGSPPSDEIRTLRDQLLLLHNQLLYERFKRQQHALRNRRLLRKVIKAAALEEHNAAMKDQLKLQEKDIQMWKVSLQKEQARYNQLQEQRDTMVTKLHSQIRQLQHDREEFYNQSQELQTKLEDCRNMIAELRIELKKANNKVCHTELLLSQVSQKLSNSESVQQQMEFLNRQLLVLGEVNELYLEQLQNKHSDTTKEVEMMKAAYRKELEKNRSHVLQQTQRLDTSQKRILELESHLAKKDHLLLEQKKYLEDVKLQARGQLQAAESRYEAQKRITQVFELEILDLYGRLEKDGLLKKLEEEKAEAAEAAEERLDCCNDGCSDSMVGHNEEASGHNGETKTPRPSSARGSSGSRGGGGSSSSSSELSTPEKPPHQRAGPFSSRWETTMGEASASIPTTVGSLPSSKSFLGMKARELFRNKSESQCDEDGMTSSLSESLKTELGKDLGVEAKIPLNLDGPHPSPPTPDSVGQLHIMDYNETHHEHS |

Results are given in words; binding and its absence hold for the method and conditions named. Binding seen in cells or lysates may run through a third protein. A yes stands for co-enrichment or nearness to the bait. Other partners may have been found.
